PubChem BioAssay AID504791 – Drosophila RNAi Screening Center | 2011

- Test: 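Genes of the fly required for silencing by miRNA, siRNA or endo-siRNA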 (primary screen)
- Cell system: Drosophila S2-derived reporter cells
- Knock-down reagent: long dsRNA against Drosophila genes, about 150-250 ng dsRNA per well (siRNA assay); about 80-120 ng (miRNA assay)
- Timing: about 5 days (siRNA assay); about 4 days (miRNA assay)
- Treatment: copper sulfate induction of reporters: 25 µM (siRNA assay); 200 mM stated (miRNA assay), 1-2 days before reading
- Read-out: 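Dual luciferase assay: Renilla to firefly signal ratio in each well, scaled to the mean ratio of its plate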
- Active means: 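First-pass picks had plate-scaled ratios over 1.5 for the siRNA assay, over 1.6 for the miRNA assay, or under 0.6; two distinct dsRNAs had to score alike on retest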
In all, the deposit lists about 23,000 reagents; this is an unselected part of those that have a named target and a result. In the full data, 199 (0.86%) got an active call. 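Plate-scaled ratios behind the calls are not deposited; printed light signals are raw; many rows marked increased or decreased are still called inactive.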 Unmarked entries are inactive. Reagents against one gene are numbered here. No sequences are given here. Not given: the direction of the score.

gene knocked down | dsRNA no. | stable siRNA reporter change | miRNA reporter change | stable assay Renilla, run 1 (luminescence) | stable assay firefly, run 1 (luminescence)
Srpk79D | 1 | – | – | 10030 | 4.23e5
Srpk79D | 2 | – | – | 7062 | 4.03e5
psd | 1 | – | – | 7144 | 4.30e5
AdipoR | 1 | – | – | 10025 | 3.34e5
hpRNA:CR32205 | 1 | – | – | 7363 | 5.04e5
CG31898 | 1 | – | – | 5443 | 4.60e5
CG14244 | 1 | – | – | 7138 | 5.19e5
park | 1 | – | – | 9809 | 3.57e5
CG17528 | 1 | – | – | 5319 | 3.21e5
Idh | 1 | – | – | 7615 | 4.79e5
Pde9 | 1 | – | – | 5716 | 4.56e5
Pde9 | 2 | – | reporter ratio raised past the hit cutoff | 6586 | 4.64e5
Pde9 | 3 | – | – | 6532 | 5.31e5
Pde9 | 4 | – | – | 5575 | 5.16e5
CG10793 | 1 | – | – | 7199 | 4.46e5
CG1635 | 1 | – | – | 7354 | 4.80e5
Mtap | 1 | – | – | 12996 | 5.78e5
Zn72D | 1 | – | – | 5796 | 2.41e5
CG1090 | 1 | – | – | 8943 | 4.29e5
CG1090 | 2 | – | – | 8887 | 4.40e5
Ugt305A1 | 1 | – | – | 6004 | 2.98e5
CR31700 | 1 | – | – | 4395 | 3.49e5
Josd | 1 | – | – | 5167 | 2.71e5
clt | 1 | – | – | 7694 | 4.69e5
CG32379 | 1 | – | – | 6328 | 3.48e5
Ttd14 | 1 | – | – | 9699 | 2.85e5
Ttd14 | 2 | – | – | 5372 | 2.37e5
CG5181 | 1 | – | – | 20518 | 1.04e6
BORCS5 | 1 | – | – | 9074 | 4.40e5
CG4558 | 1 | reporter ratio lowered past the hit cutoff | – | 3863 | 4.13e5
msk | 1 | – | – | 7966 | 3.58e5
CG34301 | 1 | – | – | 6558 | 4.04e5
zfh2 | 1 | – | – | 8090 | 5.84e5
Dark | 1 | – | – | 10625 | 3.96e5

Taken from above.
For “stable assay Renilla, run 1 (luminescence)”, msk shows 7966
For “stable assay Renilla, run 1 (luminescence)”, Zn72D has 5796
